Measured values taken from paper PMC3496993.
No constants are given. Whether binding was seen depends on the method and setting. Some results given as binding are weak or reduced against the parent protein; the word gives no strength.

Amino acid sequences for entries named in this document (tags omitted). A change or cut given only in a name is not applied to a line headed by its entry.
UniProt Q7T2Q1: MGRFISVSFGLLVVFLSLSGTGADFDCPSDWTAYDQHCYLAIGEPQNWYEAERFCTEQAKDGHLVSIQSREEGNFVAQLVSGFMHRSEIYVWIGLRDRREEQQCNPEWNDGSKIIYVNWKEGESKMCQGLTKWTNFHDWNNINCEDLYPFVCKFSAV
UniProt P17301: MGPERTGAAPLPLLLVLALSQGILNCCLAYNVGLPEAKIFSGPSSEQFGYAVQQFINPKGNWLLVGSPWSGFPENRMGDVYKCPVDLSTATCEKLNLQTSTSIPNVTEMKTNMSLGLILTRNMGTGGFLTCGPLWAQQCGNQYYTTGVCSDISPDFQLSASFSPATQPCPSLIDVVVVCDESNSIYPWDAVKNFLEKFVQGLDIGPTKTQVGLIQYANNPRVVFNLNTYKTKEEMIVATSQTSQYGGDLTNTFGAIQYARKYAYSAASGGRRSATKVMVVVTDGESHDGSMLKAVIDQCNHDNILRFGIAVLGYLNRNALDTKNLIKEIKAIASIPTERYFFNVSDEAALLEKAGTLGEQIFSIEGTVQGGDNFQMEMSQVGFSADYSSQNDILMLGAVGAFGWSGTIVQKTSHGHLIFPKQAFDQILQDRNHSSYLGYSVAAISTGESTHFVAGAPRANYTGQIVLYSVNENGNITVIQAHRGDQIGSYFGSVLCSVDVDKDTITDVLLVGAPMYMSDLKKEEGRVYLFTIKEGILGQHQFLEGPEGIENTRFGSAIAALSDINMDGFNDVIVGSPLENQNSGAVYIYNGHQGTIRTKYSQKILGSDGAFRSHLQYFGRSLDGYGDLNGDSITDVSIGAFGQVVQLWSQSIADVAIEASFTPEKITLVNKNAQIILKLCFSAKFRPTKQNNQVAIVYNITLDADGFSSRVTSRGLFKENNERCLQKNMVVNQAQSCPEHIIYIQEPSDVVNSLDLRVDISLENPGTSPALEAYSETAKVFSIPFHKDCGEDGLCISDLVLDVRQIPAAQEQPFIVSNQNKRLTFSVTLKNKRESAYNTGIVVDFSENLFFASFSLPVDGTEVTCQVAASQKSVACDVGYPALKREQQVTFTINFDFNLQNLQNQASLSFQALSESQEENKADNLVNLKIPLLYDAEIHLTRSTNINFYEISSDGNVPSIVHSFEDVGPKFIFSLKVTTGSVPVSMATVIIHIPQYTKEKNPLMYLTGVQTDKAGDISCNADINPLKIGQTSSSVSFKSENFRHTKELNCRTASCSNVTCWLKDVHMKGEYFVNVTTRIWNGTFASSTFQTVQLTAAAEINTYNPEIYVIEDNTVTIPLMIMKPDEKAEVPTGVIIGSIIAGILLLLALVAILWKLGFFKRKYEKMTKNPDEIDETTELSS

Biological target: EMS16, C-type lectin-like protein from Echis multisquamatus venom (Echis multisquamatus) (UniProt Q7T2Q1)
Assay: cell adhesion assay; 10 µg/mL CTL (Vixapatin or EMS16) immobilised overnight at 4 °C on 96-well plate in PBS; blocked with 1% BSA in HBSS with 5 mM MgCl2; CMFDA-labelled α2K562 cells (1 × 10^5 cells/well) added with or without monoclonal anti-integrin antibodies, 37 °C, 60 min; adherent cells counted by fluorescence; only the target purified

Substance: α2β1 integrin on K562 cells transfected with the α2 integrin subunit (from UniProt P17301 30-1181; P05556 21-798) (receptor)
- binding: binds
